Reference: PubChem BioAssay AID1224830 (NIAID, 2016)
Screen: 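Regulators of TLR4 signalling towards TNF-alpha in macrophage-like cells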 (primary screen). Cell system: human THP-1 monocytic leukaemia cells, TNF dual-luciferase reporter clone, PMA-differentiated to macrophage-like cells. Knock-down reagent: siRNA pool against human genes, 50 nM. Time to read-out: LPS for 4 h, given about 3 days after siRNA transfection. Challenge: bacterial LPS (TLR4 ligand), 10 ng/ml. Read-out: 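Ratio of firefly to renilla light, scaled to the plate median and expressed as a robust z-score per replicate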. Scale: TNF reporter robust z-score: higher = stronger TNF reporter response to LPS. Active means: 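Each well counts as active if its z-score is over 2.8 or under -1.5; controls are left without a call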.
The whole screen tested about 18,000 reagents; this is a random part of them. Of all reagents, about 2,900 (16%) got an active call. 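Calls are made per well; low scores hint the gene aids the LPS response, high scores that it dampens it.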 Entries without a mark were called inactive. Repeated entries: four replicate wells of each siRNA pool.

| TNF reporter robust z-score | target |
| --- | --- |
| -0.39 | NDC1 |
| 0.02 | NDC1 |
| -0.61 | NDC1 |
| -0.27 | NDC1 |
| -0.2 | TMEM39B |
| 0.63 | TMEM39B |
| -0.09 | TMEM39B |
| 0.35 | TMEM39B |
| -0.86 | OR2A25 |
| -1.11 | OR2A25 |
| -0.27 | OR2A25 |
| -0.25 | OR2A25 |
| 2.54 | MRPL53 |
| -0.19 | MRPL53 |
| -1.19 | MRPL53 |
| -1.1 | MRPL53 |
| -0.46 | GAGE2C |
| 0.67 | GAGE2C |
| -0.34 | GAGE2C |
| 1.02 | GAGE2C |
| 1.68 | BCR |
| 1.61 | BCR |
| 0.7 | BCR |
| -0.5 | BCR |
| -0.54 | MCC |
| 0.46 | MCC |
| -0.5 | MCC |
| 0.36 | MCC |
| 0.39 | ODF2L |
| 1.06 | ODF2L |
| 1.35 | ODF2L |
| 2.87 (active) | ODF2L |
| 0.57 | GCK |
| -0.01 | GCK |
| 0.45 | GCK |
| 1.16 | GCK |
| 3.11 (active) | PFKFB1 |
| 2.9 (active) | PFKFB1 |
| -0.85 | PFKFB1 |
| -0.38 | PFKFB1 |
| 0.81 | APOH |
| 0.64 | APOH |
| 0.59 | APOH |
| 1.15 | APOH |

Records listed so far whose target name begins with B or b (4):
| TNF reporter robust z-score | target |
| --- | --- |
| 1.68 | BCR |
| 1.61 | BCR |
| 0.7 | BCR |
| -0.5 | BCR |

The list goes on.
| TNF reporter robust z-score | target |
| --- | --- |
| -1.11 | TSPAN17 |
| 0.12 | TSPAN17 |
| -0.4 | TSPAN17 |
| -0.64 | TSPAN17 |
| -0.76 | VWCE |
| -0.4 | VWCE |
| -1.18 | VWCE |
| 0.44 | VWCE |
| 0.23 | TEDDM1 |
| -0.37 | TEDDM1 |
| 0.16 | TEDDM1 |
| 0.1 | TEDDM1 |
| 1.24 | CFAP57 |
| 1.51 | CFAP57 |
| 1.87 | CFAP57 |
| 0.49 | CFAP57 |
| -0.77 | SLC25A37 |
| -0.3 | SLC25A37 |
| -0.73 | SLC25A37 |
| 0.08 | SLC25A37 |
| 0.33 | TIPRL |
| -0.28 | TIPRL |
| 0.23 | TIPRL |
| 0.7 | TIPRL |
| 0.29 | SLC10A5 |
| 1.7 | SLC10A5 |
| -1.17 | SLC10A5 |
| -1.24 | SLC10A5 |
| 0.58 | AQP6 |
| -0.63 | AQP6 |
| 0.43 | AQP6 |
| 2.24 | AQP6 |
| 2.52 | CD3E |
| 0.69 | CD3E |
| 0.57 | CD3E |
| 2.63 | CD3E |
| -0.39 | PLXNB3 |
| -0.5 | PLXNB3 |
| 1.01 | PLXNB3 |
| -0.94 | PLXNB3 |
| -1.41 | NBPF9 |
| -0.59 | NBPF9 |
| -1.6 (active) | NBPF9 |
| -0.75 | NBPF9 |
| -0.16 | KRTAP26-1 |
| 1.5 | KRTAP26-1 |
| 2.12 | KRTAP26-1 |
| -0.37 | KRTAP26-1 |
| 0.83 | C8orf33 |
| 0.96 | C8orf33 |
| -0.58 | C8orf33 |
| -0.48 | C8orf33 |
| -0.84 | AIMP1 |
| 0.32 | AIMP1 |
| -0.19 | AIMP1 |
| -0.62 | AIMP1 |
| 0.86 | PI4K2B |
| 0.37 | PI4K2B |
| 0.39 | PI4K2B |
| 0.03 | PI4K2B |
| 1.53 | TRMT6 |
| 1.2 | TRMT6 |
| 1.71 | TRMT6 |
| 1.56 | TRMT6 |
| 0.71 | ASPA |
| 2.08 | ASPA |
| 1 | ASPA |
| -0.52 | ASPA |
